Test results reported in article PMC8759595.
Where a chain is given by its changes, count along the chain named. Results are given in words; binding and its absence hold for the method and conditions named. In cells and extracts the contact can be indirect. Binding can be weak; no strength is given. Sequences can lack the tags named with a protein.

Key:
Assay in all cases: co-IP; Myc-ACBD5 constructs or Myc-VAPB in COS-7 lysates (10 mM Tris-HCl pH 7.4, 150 mM NaCl, 0.5 mM EDTA, 0.5% NP-40, phosphatase inhibitor), Myc-TRAP magnetic agarose beads 1 h at 4°C; immunoblot; in some panels GSK3β WT or K85A coexpressed (Figs. 2 C, 3 A, 5 A, 7 A, S1 C, S4 B)
Myc-ACBD5 T252A = target: T1, Myc-ACBD5 T252A (UniProt Q5T8D3)
T1 sequence: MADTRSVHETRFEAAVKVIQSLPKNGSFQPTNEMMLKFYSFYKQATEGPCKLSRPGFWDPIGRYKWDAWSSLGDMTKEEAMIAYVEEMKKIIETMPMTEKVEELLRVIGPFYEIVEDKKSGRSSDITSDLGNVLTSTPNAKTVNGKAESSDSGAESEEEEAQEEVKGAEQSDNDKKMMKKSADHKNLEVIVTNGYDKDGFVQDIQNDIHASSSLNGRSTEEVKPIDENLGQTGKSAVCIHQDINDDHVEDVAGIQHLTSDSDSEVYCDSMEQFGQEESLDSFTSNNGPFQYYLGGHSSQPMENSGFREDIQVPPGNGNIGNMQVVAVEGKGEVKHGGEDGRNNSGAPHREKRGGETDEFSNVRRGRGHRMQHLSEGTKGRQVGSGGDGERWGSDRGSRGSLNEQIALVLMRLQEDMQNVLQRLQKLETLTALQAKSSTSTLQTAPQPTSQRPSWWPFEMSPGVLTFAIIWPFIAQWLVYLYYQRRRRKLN

Myc-ACBD5 S261A = target: T2, Myc-ACBD5 S261A (UniProt Q5T8D3)
T2 sequence: T1 sequence with A252T, S261A

Myc-ACBD5 T252E = target: T3, Myc-ACBD5 T252E (UniProt Q5T8D3)
T3 sequence: T1 sequence with A252E

Myc-ACBD5 = target: T4, Myc-ACBD5 (UniProt Q5T8D3)
T4 sequence: T1 sequence with A252T

Measured: binding

endogenous VAPB (COS-7 cells)
binds: all assays above
